According to paper PMC4424430:
These are yes or no findings as the source states them, for the method shown. Binding seen in cells or lysates may run through a third protein. Some binding calls cover weakened binding; strength is not graded here.

Protein sequences, listed by entry. Tags and fused reporters are not part of them.
UniProt P51532: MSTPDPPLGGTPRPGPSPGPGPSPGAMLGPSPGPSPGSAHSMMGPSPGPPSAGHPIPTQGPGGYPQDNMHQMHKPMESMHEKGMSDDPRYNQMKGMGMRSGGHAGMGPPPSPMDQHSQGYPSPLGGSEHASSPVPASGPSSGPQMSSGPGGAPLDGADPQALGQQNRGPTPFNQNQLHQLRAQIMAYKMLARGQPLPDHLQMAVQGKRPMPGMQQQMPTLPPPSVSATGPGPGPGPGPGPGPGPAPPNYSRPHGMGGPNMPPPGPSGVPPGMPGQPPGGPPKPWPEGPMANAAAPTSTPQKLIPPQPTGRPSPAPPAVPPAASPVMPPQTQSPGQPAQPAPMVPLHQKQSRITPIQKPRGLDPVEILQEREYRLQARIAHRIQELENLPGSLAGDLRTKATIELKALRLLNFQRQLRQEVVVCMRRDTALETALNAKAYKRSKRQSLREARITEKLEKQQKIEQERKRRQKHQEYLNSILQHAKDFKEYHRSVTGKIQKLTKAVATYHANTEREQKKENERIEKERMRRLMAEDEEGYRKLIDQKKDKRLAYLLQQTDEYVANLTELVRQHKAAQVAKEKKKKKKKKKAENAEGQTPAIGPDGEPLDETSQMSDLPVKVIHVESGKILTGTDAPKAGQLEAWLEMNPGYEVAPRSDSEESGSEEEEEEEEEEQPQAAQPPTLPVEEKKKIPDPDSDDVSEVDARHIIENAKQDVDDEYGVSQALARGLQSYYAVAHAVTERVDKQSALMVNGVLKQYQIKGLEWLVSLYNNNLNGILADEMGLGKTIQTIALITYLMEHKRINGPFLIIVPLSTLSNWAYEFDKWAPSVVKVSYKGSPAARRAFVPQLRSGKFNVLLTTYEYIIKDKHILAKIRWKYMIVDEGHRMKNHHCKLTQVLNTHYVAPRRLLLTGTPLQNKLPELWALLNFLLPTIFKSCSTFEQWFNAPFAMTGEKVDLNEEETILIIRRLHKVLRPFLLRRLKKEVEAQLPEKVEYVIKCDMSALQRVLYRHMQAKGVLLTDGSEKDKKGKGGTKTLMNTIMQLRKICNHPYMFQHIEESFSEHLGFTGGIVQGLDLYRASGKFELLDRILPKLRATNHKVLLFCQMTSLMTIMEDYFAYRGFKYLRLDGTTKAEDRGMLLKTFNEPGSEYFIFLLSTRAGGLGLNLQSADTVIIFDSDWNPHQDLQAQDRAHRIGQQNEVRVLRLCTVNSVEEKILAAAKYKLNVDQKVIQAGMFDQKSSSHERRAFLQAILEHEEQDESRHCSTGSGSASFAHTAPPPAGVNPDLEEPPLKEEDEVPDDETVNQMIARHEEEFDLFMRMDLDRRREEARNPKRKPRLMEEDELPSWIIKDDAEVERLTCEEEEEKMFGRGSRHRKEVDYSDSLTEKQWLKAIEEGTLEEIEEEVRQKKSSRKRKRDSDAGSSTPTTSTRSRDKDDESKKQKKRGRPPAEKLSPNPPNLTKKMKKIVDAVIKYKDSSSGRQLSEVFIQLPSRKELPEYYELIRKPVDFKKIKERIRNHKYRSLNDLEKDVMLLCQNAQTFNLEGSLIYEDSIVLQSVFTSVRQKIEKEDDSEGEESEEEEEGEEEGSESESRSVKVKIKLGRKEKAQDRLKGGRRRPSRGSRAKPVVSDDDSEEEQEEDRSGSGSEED

Tests used:
[1] = target: T1, IRF2 (human (endogenous in HeLa)) (UniProt P14316); test: co-IP; HeLa nuclear extracts immunoprecipitated with anti-IRF1 or anti-IRF2 antibodies, SDS-PAGE, blotted with BRG1 antibodies; also with ethidium bromide added
T1 sequence: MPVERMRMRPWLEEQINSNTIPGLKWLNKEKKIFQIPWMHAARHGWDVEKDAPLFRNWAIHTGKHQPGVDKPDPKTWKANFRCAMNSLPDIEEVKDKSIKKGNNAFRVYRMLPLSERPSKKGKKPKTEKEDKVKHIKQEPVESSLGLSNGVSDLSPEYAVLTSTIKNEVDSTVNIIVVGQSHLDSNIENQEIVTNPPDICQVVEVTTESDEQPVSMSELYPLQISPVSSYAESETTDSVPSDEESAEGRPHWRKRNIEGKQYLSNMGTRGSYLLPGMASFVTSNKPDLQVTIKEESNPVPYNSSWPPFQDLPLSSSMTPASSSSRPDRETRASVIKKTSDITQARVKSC

[2] = target: T2, IRF1 (human (endogenous in HeLa)) (UniProt P10914); test: as above
T2 sequence: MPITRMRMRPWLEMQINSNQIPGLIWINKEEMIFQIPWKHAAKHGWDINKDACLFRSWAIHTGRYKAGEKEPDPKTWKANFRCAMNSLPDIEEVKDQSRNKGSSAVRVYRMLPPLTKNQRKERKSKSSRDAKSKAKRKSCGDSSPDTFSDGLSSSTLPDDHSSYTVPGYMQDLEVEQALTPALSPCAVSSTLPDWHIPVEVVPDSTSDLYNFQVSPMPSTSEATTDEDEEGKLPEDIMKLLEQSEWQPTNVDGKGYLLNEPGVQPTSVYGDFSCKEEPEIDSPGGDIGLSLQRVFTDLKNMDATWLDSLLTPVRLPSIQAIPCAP

binding [1]: binds
binding [2]: binds
Substance: BRG1 (from UniProt P51532 1-1647)
